These results are taken from doi:10.1101/2021.10.26.465916.

Protein sequences, listed by entry. Tags and fused reporters are not part of them. Lines headed by an entry give the natural chain unless they say otherwise; changes in a name come on top.
UniProt Q02630: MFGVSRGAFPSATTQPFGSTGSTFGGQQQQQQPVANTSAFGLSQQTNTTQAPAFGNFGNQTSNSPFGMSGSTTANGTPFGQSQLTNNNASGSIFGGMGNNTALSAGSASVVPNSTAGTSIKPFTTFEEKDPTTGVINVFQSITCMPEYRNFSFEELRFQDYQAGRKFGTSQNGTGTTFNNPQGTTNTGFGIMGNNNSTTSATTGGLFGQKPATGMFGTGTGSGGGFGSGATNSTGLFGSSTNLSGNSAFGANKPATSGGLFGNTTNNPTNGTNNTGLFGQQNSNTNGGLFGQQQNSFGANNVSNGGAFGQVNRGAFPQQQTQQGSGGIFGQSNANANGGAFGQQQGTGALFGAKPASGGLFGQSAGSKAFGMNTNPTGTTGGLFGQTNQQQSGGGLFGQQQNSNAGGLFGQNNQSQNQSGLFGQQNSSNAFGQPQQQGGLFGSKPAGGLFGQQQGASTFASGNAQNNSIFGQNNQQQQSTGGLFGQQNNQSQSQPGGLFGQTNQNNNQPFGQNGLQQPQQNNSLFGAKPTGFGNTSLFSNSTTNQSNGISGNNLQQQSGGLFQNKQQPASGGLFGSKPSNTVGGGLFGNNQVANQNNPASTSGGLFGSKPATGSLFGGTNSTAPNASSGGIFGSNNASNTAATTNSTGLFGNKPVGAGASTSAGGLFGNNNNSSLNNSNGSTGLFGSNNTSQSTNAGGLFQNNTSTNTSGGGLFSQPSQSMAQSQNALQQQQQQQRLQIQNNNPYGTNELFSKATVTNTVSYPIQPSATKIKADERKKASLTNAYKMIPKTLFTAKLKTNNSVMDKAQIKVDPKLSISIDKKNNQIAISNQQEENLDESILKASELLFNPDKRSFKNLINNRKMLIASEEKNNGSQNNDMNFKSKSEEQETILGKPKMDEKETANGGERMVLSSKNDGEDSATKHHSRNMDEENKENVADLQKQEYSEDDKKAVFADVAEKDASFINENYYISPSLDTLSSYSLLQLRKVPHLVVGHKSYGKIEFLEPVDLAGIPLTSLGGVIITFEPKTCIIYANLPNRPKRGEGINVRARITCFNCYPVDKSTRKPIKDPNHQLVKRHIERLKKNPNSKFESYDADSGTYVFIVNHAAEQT
UniProt P52948: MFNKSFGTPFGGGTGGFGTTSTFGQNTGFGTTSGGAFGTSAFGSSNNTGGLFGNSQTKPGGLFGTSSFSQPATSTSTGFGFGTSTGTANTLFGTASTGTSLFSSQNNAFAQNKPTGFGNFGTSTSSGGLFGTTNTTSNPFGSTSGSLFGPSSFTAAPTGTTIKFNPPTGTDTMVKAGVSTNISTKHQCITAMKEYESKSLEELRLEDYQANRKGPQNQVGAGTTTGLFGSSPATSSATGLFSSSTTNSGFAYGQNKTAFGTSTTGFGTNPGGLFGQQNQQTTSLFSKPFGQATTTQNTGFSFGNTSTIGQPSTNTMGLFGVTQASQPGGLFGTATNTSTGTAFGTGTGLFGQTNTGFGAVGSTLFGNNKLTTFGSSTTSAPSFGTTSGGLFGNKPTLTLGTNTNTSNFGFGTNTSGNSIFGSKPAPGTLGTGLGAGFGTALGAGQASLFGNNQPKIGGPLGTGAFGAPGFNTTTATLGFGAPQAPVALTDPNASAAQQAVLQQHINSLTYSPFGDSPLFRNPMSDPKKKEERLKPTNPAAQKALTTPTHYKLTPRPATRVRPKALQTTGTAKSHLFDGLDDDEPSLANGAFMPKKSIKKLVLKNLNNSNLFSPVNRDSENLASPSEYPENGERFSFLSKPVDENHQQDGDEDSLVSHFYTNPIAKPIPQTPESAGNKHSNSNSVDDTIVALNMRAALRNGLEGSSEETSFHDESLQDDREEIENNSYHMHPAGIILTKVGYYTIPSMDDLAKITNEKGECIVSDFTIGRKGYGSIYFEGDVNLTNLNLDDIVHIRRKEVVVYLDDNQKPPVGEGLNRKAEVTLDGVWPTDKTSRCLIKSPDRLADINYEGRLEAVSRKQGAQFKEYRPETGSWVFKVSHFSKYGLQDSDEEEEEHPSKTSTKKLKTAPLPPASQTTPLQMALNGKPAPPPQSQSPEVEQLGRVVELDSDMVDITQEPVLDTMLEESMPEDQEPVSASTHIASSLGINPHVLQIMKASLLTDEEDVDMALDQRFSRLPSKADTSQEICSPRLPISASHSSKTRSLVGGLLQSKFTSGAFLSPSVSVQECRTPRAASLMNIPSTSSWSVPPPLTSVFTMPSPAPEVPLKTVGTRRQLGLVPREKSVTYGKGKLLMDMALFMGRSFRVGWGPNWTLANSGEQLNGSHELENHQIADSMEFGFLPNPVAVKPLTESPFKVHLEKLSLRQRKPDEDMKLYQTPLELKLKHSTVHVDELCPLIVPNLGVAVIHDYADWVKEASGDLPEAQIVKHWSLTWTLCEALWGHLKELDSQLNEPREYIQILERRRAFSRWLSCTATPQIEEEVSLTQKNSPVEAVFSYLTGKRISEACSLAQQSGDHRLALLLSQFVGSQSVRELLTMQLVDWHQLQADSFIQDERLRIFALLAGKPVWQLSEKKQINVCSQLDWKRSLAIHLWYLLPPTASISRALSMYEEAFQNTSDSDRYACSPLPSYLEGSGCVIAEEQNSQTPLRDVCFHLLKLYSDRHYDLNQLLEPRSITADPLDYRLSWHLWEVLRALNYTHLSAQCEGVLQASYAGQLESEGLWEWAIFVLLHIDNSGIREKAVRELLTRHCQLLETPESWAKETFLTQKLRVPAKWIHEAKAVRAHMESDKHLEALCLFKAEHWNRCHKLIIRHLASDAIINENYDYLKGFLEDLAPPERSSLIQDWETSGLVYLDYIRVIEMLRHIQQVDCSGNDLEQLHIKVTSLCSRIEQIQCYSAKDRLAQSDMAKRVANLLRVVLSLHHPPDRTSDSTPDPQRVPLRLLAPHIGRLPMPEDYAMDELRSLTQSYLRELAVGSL
UniProt O75190: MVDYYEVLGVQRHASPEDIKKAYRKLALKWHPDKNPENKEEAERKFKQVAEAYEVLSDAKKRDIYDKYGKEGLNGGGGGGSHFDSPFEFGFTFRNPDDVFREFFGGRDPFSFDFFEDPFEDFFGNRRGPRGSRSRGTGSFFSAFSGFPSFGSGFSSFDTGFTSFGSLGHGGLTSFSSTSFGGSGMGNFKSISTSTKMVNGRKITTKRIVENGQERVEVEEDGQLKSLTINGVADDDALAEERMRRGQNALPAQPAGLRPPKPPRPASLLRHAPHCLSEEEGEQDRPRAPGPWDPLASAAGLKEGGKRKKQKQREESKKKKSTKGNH

Test in all cases: partitioning into phase-separated FG-domain droplets
The target of test [1] is Nup116 FG domain (S. cerevisiae) (UniProt Q02630).
The target is the same in test [2]. This is another data set of the same source.
Test [3] concerns the target Nup98 FG domain (Homo sapiens) (UniProt P52948).

Where two headings read alike, the source gives them in different places. Results are given in words; binding and its absence hold for the method and conditions named. Binding can be weak; no strength is given. For some of these results: Where a sequence is shown, tags or fusion partners need not be part of it.

Consider “mCherry-DNAJB6-His10 (from UniProt O75190 1-326)”, for which, in test [1], the binding result is “binds”.

B1: MLF2-GFP-FLAG (protein, UniProt Q15773 1-248)
chain: MFRFMRDVEPEDPMFLMDPFAIHRQHMSRMLSGGFGYSPFLSITDGNMPGTRPASRRMQQAGAVSPFGMLGMSGGFMDMFGMMNDMIGNMEHMTAGGNCQTFSSSTVISYSNTGDGAPKVYQETSEMRSAPGGIRETRRTVRDSDSGLEQMSIGHHIRDRAHILQRSRNHRTGDQEERQDYINLDESEAAAFDDEWRRETSRFRQQRPLEFRRLESSGAGGRRAEGPPRLAIQGPEDSPSRQSRRYDW
For B1, the binding result in test [2] and in test [3] was “binds” throughout.

B2: untagged MLF2 (protein, UniProt Q15773 1-248)
chain: B1 chain
B2: in test [2], the binding entry is “binds”.
